Record: PubChem BioAssay AID504764 (Drosophila RNAi Screening Center, 2011)
In all, the deposit lists about 22,000 reagents; this is an unselected part of those with a known target gene and a result. Over the whole deposit, 403 (1.9%) are marked active. 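Unnormalised raw counts per well; ratio z-scores behind the hit calls and whether each hit raises or lowers signal are not deposited.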 A plus sign joins genes that one reagent is predicted to hit. Not stated in the record: the amount of reagent.

Aim: 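Genome-wide screen for regulators of Notch-driven gene expression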 (primary screen)
System: Drosophila Kc167 cells
Reagent: long dsRNA against Drosophila genes
Timing: about 5 days (4 days dsRNA, then 24 h after transfection)
Treatment: transfection of constitutively active membrane-tethered Notch lacking the extracellular domain, read 24 h later
Measured: 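Light from a Notch-responsive E(spl)m3 luciferase reporter under active Notch, with control-promoter and no-Notch reporter wells to normalise; raw counts from paired wells a and b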
Direction: induced reporter light, run 1, well a and induced reporter light, run 1, well b: higher = more light from the Notch target reporter with active Notch; control promoter light, run 1, well a and control promoter light, run 1, well b: higher = more light from the viral control promoter (cell number, transfection, viability); uninduced reporter light, run 1, well a: higher = more light from the Notch target reporter without active Notch
Hit rule: 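Wells with low control signal or poorly matching duplicates excluded; duplicates averaged; per source plate, z beyond ±2 for induced/control log2 ratio or beyond ±1.8 for induced/uninduced marks a hit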
Calls: active = modifier hit (raised or lowered Notch signal); inactive = not a hit

{"predicted target":"Fas2","amplicon":"DRSC17308","induced reporter light, run 1, well a":69250,"induced reporter light, run 1, well b":81325,"control promoter light, run 1, well a":92600,"control promoter light, run 1, well b":84380,"uninduced reporter light, run 1, well a":5415,"activity call":"inactive"}
{"predicted target":"Fas2","amplicon":"DRSC17309","induced reporter light, run 1, well a":67515,"induced reporter light, run 1, well b":90345,"control promoter light, run 1, well a":1.11e5,"control promoter light, run 1, well b":94735,"uninduced reporter light, run 1, well a":6410,"activity call":"inactive"}
{"predicted target":"Fas2","amplicon":"DRSC18664","induced reporter light, run 1, well a":1.81e5,"induced reporter light, run 1, well b":2.46e5,"control promoter light, run 1, well a":1.88e5,"control promoter light, run 1, well b":2.16e5,"uninduced reporter light, run 1, well a":11285,"activity call":"active"}
{"predicted target":"CtsB","amplicon":"DRSC19361","induced reporter light, run 1, well a":1.55e5,"induced reporter light, run 1, well b":1.60e5,"control promoter light, run 1, well a":1.77e5,"control promoter light, run 1, well b":2.22e5,"uninduced reporter light, run 1, well a":12790,"activity call":"inactive"}

Just “uninduced reporter light, run 1, well a”, for 2 of the entries above:
Fas2 [DRSC17309]: 6410
Fas2 [DRSC18664]: 11285

Next records follow:
{"predicted target":"bcd + CR14578","amplicon":"DRSC20984","induced reporter light, run 1, well a":63750,"induced reporter light, run 1, well b":84615,"control promoter light, run 1, well a":84515,"control promoter light, run 1, well b":1.11e5,"uninduced reporter light, run 1, well a":10665,"activity call":"inactive"}
{"predicted target":"GV1","amplicon":"DRSC08228","induced reporter light, run 1, well a":1.24e5,"induced reporter light, run 1, well b":94730,"control promoter light, run 1, well a":1.82e5,"control promoter light, run 1, well b":1.58e5,"uninduced reporter light, run 1, well a":5620,"activity call":"inactive"}
{"predicted target":"kn","amplicon":"DRSC05505","induced reporter light, run 1, well a":2.69e5,"induced reporter light, run 1, well b":1.96e5,"control promoter light, run 1, well a":3.00e5,"control promoter light, run 1, well b":3.74e5,"uninduced reporter light, run 1, well a":18255,"activity call":"inactive"}
{"predicted target":"kn","amplicon":"DRSC05507","induced reporter light, run 1, well a":2.00e5,"induced reporter light, run 1, well b":1.75e5,"control promoter light, run 1, well a":3.19e5,"control promoter light, run 1, well b":3.13e5,"uninduced reporter light, run 1, well a":19625,"activity call":"inactive"}
{"predicted target":"kn","amplicon":"DRSC06196","induced reporter light, run 1, well a":73530,"induced reporter light, run 1, well b":82835,"control promoter light, run 1, well a":91160,"control promoter light, run 1, well b":89605,"uninduced reporter light, run 1, well a":6700,"activity call":"inactive"}
{"predicted target":"kn","amplicon":"DRSC07637","induced reporter light, run 1, well a":77885,"induced reporter light, run 1, well b":88945,"control promoter light, run 1, well a":1.09e5,"control promoter light, run 1, well b":99905,"uninduced reporter light, run 1, well a":8470,"activity call":"inactive"}
{"predicted target":"Bub1","amplicon":"DRSC02357","induced reporter light, run 1, well a":13750,"induced reporter light, run 1, well b":17660,"control promoter light, run 1, well a":9805,"control promoter light, run 1, well b":11000,"uninduced reporter light, run 1, well a":5650,"activity call":"inactive"}
{"predicted target":"CG4424","amplicon":"DRSC15576","induced reporter light, run 1, well a":1.55e5,"induced reporter light, run 1, well b":1.65e5,"control promoter light, run 1, well a":2.00e5,"control promoter light, run 1, well b":2.28e5,"uninduced reporter light, run 1, well a":14688,"activity call":"inactive"}
